# Measurements reported in PubChem BioAssay AID686938 (Drosophila RNAi Screening Center, 2013).
# Purpose: 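Looking for CRAC channel components and the factors controlling them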 (primary screen)
# Cells: Drosophila S2R+ cells
# Reagent: long dsRNA against Drosophila genes, about 0.25 µg dsRNA per well, roughly 10,000 cells
# Duration: 5 days of knock-down before the calcium assay
# Challenge: thapsigargin (SERCA pump blocker) to empty calcium stores; entry signal taken 4 min after adding it
# Detection: 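Per-well fluo-4 fluorescence in two replicates, unnormalised, measured in resting cells and 4 min after store depletion by the SERCA blocker thapsigargin; ratio of the two present in few wells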
# Direction: calcium entry signal: higher = stronger calcium signal after store depletion; entry to resting ratio: higher = more calcium entry relative to resting level; resting calcium signal: higher = higher resting calcium signal
# Hit rule: 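Hit if the duplicate-averaged plate z-score for entry over resting signal is under −3; wells with weak total dye signal (Fmax z < −2) or more than 5 off-targets removed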
# Calls: active = strongly reduced calcium entry; inactive = no strong reduction
# The screen tested about 23,000 reagents; this is a random part of those with a known target gene and a result. In the full data, 75 (0.33%) are marked active. 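Raw plate signals without normalisation; calls rest on plate z-scores that were not deposited; ratio present for only 364 wells.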 The record does not give: the dose of the treatment.
predicted target,dsRNA,"calcium entry signal, replicate 1 (fluorescence units)","calcium entry signal, replicate 2 (fluorescence units)",entry to resting ratio,"resting calcium signal, replicate 1 (fluorescence units)","resting calcium signal, replicate 2 (fluorescence units)",Call
l(2)k09913,DRSC04699,3.87e7,,,1.98e7,,inactive
Fit2,DRSC10908,2.97e7,4.41e7,,1.55e7,2.72e7,inactive
Mat1,DRSC07465,3.75e7,5.53e7,,1.81e7,3.18e7,inactive
tsr,DRSC04718,2.84e7,2.21e7,,2.24e7,1.72e7,active
Mdh1,DRSC02846,4.76e7,6.11e7,,2.13e7,2.45e7,inactive
Cpsf5,DRSC10374,4.25e7,3.88e7,,2.99e7,1.50e7,inactive
DNAlig4,DRSC19436,5.06e7,4.13e7,,2.20e7,1.97e7,inactive
Eig71Ek,DRSC11158,3.96e7,5.71e7,,1.91e7,2.29e7,inactive
Acsx1R,DRSC14339,4.59e7,5.34e7,,5.71e7,2.38e7,inactive
Spf45,DRSC03826,5.13e7,5.64e7,,2.53e7,2.44e7,inactive
Fum1,DRSC18344,4.05e7,2.98e7,,1.88e7,1.59e7,inactive
CG2063,DRSC06811,3.18e7,4.34e7,,1.89e7,1.98e7,inactive
Pabp2,DRSC07501,2.42e7,4.57e7,,1.71e7,2.04e7,active
CG4594,DRSC02762,3.92e7,,,1.88e7,,inactive
Ebp,DRSC04048,3.42e7,,,1.63e7,,inactive
CG11722,DRSC14358,2.17e7,2.08e7,,1.22e7,1.18e7,inactive
Arc42,DRSC14340,3.87e7,3.87e7,,4.69e7,1.69e7,inactive
Arc42,DRSC15627,3.41e7,3.55e7,,5.06e7,1.58e7,inactive
CG17192,DRSC15186,3.90e7,5.23e7,,1.86e7,2.17e7,inactive
Spn42Dc,DRSC05010,2.61e7,2.42e7,,1.15e7,1.10e7,inactive
Cpr49Aa,DRSC07197,3.48e7,4.44e7,,1.77e7,2.03e7,inactive
Or43a,DRSC07485,4.25e7,4.18e7,,1.94e7,1.86e7,inactive
CG1463,DRSC19603,3.95e7,3.84e7,,1.74e7,1.77e7,inactive
elB,DRSC03527,5.24e7,3.19e7,,2.33e7,1.75e7,inactive
Hmu,DRSC16705,4.15e7,6.07e7,,2.01e7,2.35e7,inactive
CG15404,DRSC00418,2.57e7,2.33e7,,1.26e7,1.08e7,inactive
Or67a,DRSC11240,2.48e7,3.36e7,,1.33e7,1.48e7,inactive
escl,DRSC02828,4.44e7,,,1.95e7,,inactive
elgi,DRSC10242,3.85e7,4.78e7,,1.79e7,3.21e7,inactive
CG14420,DRSC17917,3.34e7,5.95e7,2.1,1.57e7,2.16e7,inactive
Muc68E,DRSC09146,4.70e7,4.40e7,,2.60e7,2.17e7,inactive
CG6733,DRSC16103,4.44e7,5.27e7,,2.24e7,2.46e7,inactive
Sqor,DRSC08453,4.20e7,3.24e7,,2.81e7,1.41e7,inactive
CG3517,DRSC15492,4.21e7,4.56e7,,5.47e7,2.14e7,inactive
IntS11,DRSC15407,3.33e7,4.05e7,,1.59e7,1.96e7,inactive
CG16953,DRSC15167,3.57e7,3.85e7,,1.56e7,1.68e7,inactive
CG15362,DRSC00392,2.59e7,2.49e7,,1.24e7,1.15e7,inactive
CG14742,DRSC14962,1.97e7,1.82e7,,1.14e7,9.57e6,inactive
CG31933,DRSC00457,3.01e7,3.84e7,,1.57e7,1.71e7,inactive
Su(dx),DRSC00791,3.99e7,,,2.50e7,,inactive
